From the supplement of paper PMC3353916
This is a noisy data set.

Tested on: Sindbis virus TE/5'2J-GFP
Experiment: percent infected (GFP+ in RFP+ ISG-expressing cells); higher = more infection (less antiviral activity)
Conditions: experiment: primary screen (single well)

Substance | percent infected (BHK/HA-Zeo (control)) | percent infected (BHK/NZAP-Zeo (ZAP))
MADIKTGIFAKNVQKRLNRAQEKVLQKLGKADETKDEQFEEYVQNFKRQEAEGTRLQRELRGYLAAIKGMQEASMKLTESLHEVYEPDWYGREDVKMVGEKCDVLWEDFHQKLVDGSLLTLDTYLGQFPDIKNRIAKRSRKLVDYDSARHHLEALQSSKRKDESRISKAEEEFQKAQKVFEEFNVDLQEELPSLWSRRVGFYVNTFKNVSSLEAKFHKEIAVLCHKLYEVMTKLGDQHADKAFTIQGAPSDSGPLRIAKTPSPPEEPSPLPSPTASPNHTLAPASPAPARPRSPSQTRKGPPVPPLPKVTPTKELQQENIISFFEDNFVPEISVTTPSQNEVPEVKKEETLLDLDFDPFKPEVTPAGSAGVTHSPMSQTLPWDLWTTSTDLVQPASGGSFNGFTQPQDTSLFTMQTDQSMICNLAESEQAPPTEPKAEEPLAAVTPAVGLDLGMDTRAEEPVEEAVIIPGADADAAVGTLVSAAEGAPGEEAEAEKATVPAGEGVSLEEAKIGTETTEGAESAQPEAEELEATVPQEKVIPSVVIEPASNHEEEGENEITIGAEPKETTEDAAPPGPTSETPELATEQKPIQDPQPTPSAPAMGAADQLASAREASQELPPGFLYKVETLHDFEAANSDELTLQRGDVVLVVPSDSEADQDAGWLVGVKESDWLQYRDLATYKGLFPENFTRRLD [AMPH] | 98% | 91.7%
MAEAHQAVAFQFTVTPDGIDLRLSHEALRQIYLSGLHSWKKKFIRFKNGIITGVYPASPSSWLIVVVGVMTTMYAKIDPSLGIIAKINRTLETANCMSSQTKNVVSGVLFGTGLWVALIVTMRYSLKVLLSYHGWMFTEHGKMSRATKIWMGMVKIFSGRKPMLYSFQTSLPRLPVPAVKDTVNRYLQSVRPLMKEEDFKRMTALAQDFAVGLGPRLQWYLKLKSWWATNYVSDWWEEYIYLRGRGPLMVNSNYYAMDLLYILPTHIQAARAGNAIHAILLYRRKLDREEIKPIRLLGSTIPLCSAQWERMFNTSRIPGEETDTIQHMRDSKHIVVYHRGRYFKVWLYHDGRLLKPREMEQQMQRILDNTSEPQPGEARLAALTAGDRVPWARCRQAYFGRGKNKQSLDAVEKAAFFVTLDETEEGYRSEDPDTSMDSYAKSLLHGRCYDRWFDKSFTFVVFKNGKMGLNAEHSWADAPIVAHLWEYVMSIDSLQLGYAEDGHCKGDINPNIPYPTRLQWDIPGECQEVIETSLNTANLLANDVDFHSFPFVAFGKGIIKKCRTSPDAFVQLALQLAHYKDMGKFCLTYEASMTRLFREGRTETVRSCTTESCDFVRAMVDPAQTVEQRLKLFKLASEKHQHMYRLAMTGSGIDRHLFCLYVVSKYLAVESPFLKEVLSEPWRLSTSQTPQQQVELFDLENNPEYVSSGGGFGPVADDGYGVSYILVGENLINFHISSKFSCPETDSHRFGRHLKEAMTDIITLFGLSSNSKK [CPT1A] | 89.9% | 97.4%
MAEEEVAKLEKHLMLLRQEYVKLQKKLAETEKRCALLAAQANKESSSESFISRLLAIVADLYEQEQYSDLKIKVGDRHISAHKFVLAARSDSWSLANLSSTKELDLSDANPEVTMTMLRWIYTDELEFREDDVFLTELMKLANRFQLQLLRERCEKGVMSLVNVRNCIRFYQTAEELNASTLMNYCAEIIASHWDDLRKEDFSSMSAQLLYKMIKSKTEYPLHKAIKVEREDVVFLYLIEMDSQLPGKLNEADHNGDLALDLALSRRLESIATTLVSHKADVDMVDKSGWSLLHKGIQRGDLFAATFLIKNGAFVNAATLGAQETPLHLVALYSSKKHSADVMSEMAQIAEALLQAGANPNMQDSKGRTPLHVSIMAGNEYVFSQLLQCKQLDLELKDHEGSTALWLAVQHITVSSDQSVNPFEDVPVVNGTSFDENSFAARLIQRGSHTDAPDTATGNCLLQRAAGAGNEAAALFLATNGAHVNHRNKWGETPLHTACRHGLANLTAELLQQGANPNLQTEEALPLPKEAASLTSLADSVHLQTPLHMAIAYNHPDVVSVILEQKANALHATNNLQIIPDFSLKDSRDQTVLGLALWTGMHTIAAQLLGSGAAINDTMSDGQTLLHMAIQRQDSKSALFLLEHQADINVRTQDGETALQLAIRNQLPLVVDAICTRGADMSVPDEKGNPPLWLALANNLEDIASTLVRHGCDATCWGPGPGGCLQTLLHRAIDENNEPTACFLIRSGCDVNSPRQPGANGEGEEEARDGQTPLHLAASWGLEETVQCLLEFGANVNAQDAEGRTPIHVAISSQHGVIIQLLVSHPDIHLNVRDRQGLTPFACAMTFKNNKSAEAILKRESGAAEQVDNKGRNFLHVAVQNSDIESVLFLISVHANVNSRVQDASKLTPLHLAVQAGSEIIVRNLLLAGAKVNELTKHRQTALHLAAQQDLPTICSVLLENGVDFAAVDENGNNALHLAVMHGRLNNIRVLLTECTVDAEAFNLRGQSPLHILGQYGKENAAAIFDLFLECMPGYPLDKPDADGSTVLLLAYMKGNANLCRAIVRSGARLGVNNNQGVNIFNYQVATKQLLFRLLDMLSKEPPWCDGSYCYECTARFGVTTRKHHCRHCGRLLCHKCSTKEIPIIKFDLNKPVRVCNICFDVLTLGGVS [ANKFY1] | 98.4% | 91.5%
MAEFLDDQETRLCDNCKKEIPVFNFTIHEIHCQRNIGMCPTCKEPFPKSDMETHMAAEHCQVTCKCNKKLEKRLLKKHEETECPLRLAVCQHCDLELSILKLKEHEDYCGARTELCGNCGRNVLVKDLKTHPEVCGREGEEKRNEVAIPPNAYDESWGQDGIWIASQLLRQIEALDPPMRLPRRPLRAFESDVFHNRTTNQRNITAQVSIQNNLFEEQERQERNRGQQPPKEGGEESANLDFMLALSLQNEGQASSVAEQDFWRAVCEADQSHGGPRSLSDIKGAADEIMLPCEFCEELYPEELLIDHQTSCNPSRALPSLNTGSSSPRGVEEPDVIFQNFLQQAASNQLDSLMGLSNSHPVEESIIIPCEFCGVQLEEEVLFHHQDQCDQRPATATNHVTEGIPRLDSQPQETSPELPRRRVRHQGDLSSGYLDDTKQETANGPTSCLPPSRPINNMTATYNQLSRSTSGPRPGCQPSSPCVPKLSNSDSQDIQGRNRDSQNGAIAPGHVSVIRPPQNLYPENIVPSFSPGPSGRYGASGRSEGGRNSRVTPAAANYRSRTAKAKPSKQQGAGDAEEEEEE [TRAFD1] | 98.9% | 97.5%
MAEGEGYFAMSEDELACSPYIPLGGDFGGGDFGGGDFGGGDFGGGGSFGGHCLDYCESPTAHCNVLNWEQVQRLDGILSETIPIHGRGNFPTLELQPSLIVKVVRRRLAEKRIGVRDVRLNGSAASHVLHQDSGLGYKDLDLIFCADLRGEGEFQTVKDVVLDCLLDFLPEGVNKEKITPLTLKEAYVQKMVKVCNDSDRWSLISLSNNSGKNVELKFVDSLRRQFEFSVDSFQIKLDSLLLFYECSENPMTETFHPTIIGESVYGDFQEAFDHLCNKIIATRNPEEIRGGGLLKYCNLLVRGFRPASDEIKTLQRYMCSRFFIDFSDIGEQQRKLESYLQNHFVGLEDRKYEYLMTLHGVVNESTVCLMGHERRQTLNLITMLAIRVLADQNVIPNVANVTCYYQPAPYVADANFSNYYIAQVQPVFTCQQQTYSTWLPCN [FAM46A] |  | 98.9%
MAENGKNCDQRRVAMNKEHHNGNFTDPSSVNEKKRREREERQNIVLWRQPLITLQYFSLEILVILKEWTSKLWHRQSIVVSFLLLLAVLIATYYVEGVHQQYVQRIEKQFLLYAYWIGLGILSSVGLGTGLHTFLLYLGPHIASVTLAAYECNSVNFPEPPYPDQIICPDEEGTEGTISLWSIISKVRIEACMWGIGTAIGELPPYFMARAARLSGAEPDDEEYQEFEEMLEHAESAQDFASRAKLAVQKLVQKVGFFGILACASIPNPLFDLAGITCGHFLVPFWTFFGATLIGKAIIKMHIQKIFVIITFSKHIVEQMVAFIGAVPGIGPSLQKPFQEYLEAQRQKLHHKSEMGTPQGENWLSWMFEKLVVVMVCYFILSIINSMAQSYAKRIQQRLNSEEKTK [TMEM49] | 97.6% | 93.5%
MAEQVLPQALYLSNMRKAVKIRERTPEDIFKPTNGIIHHFKTMHRYTLEMFRTCQFCPQFREIIHKALIDRNIQATLESQKKLNWCREVRKLVALKTNGDGNCLMHATSQYMWGVQDTDLVLRKALFSTLKETDTRNFKFRWQLESLKSQEFVETGLCYDTRNWNDEWDNLIKMASTDTPMARSGLQYNSLEEIHIFVLCNILRRPIIVISDKMLRSLESGSNFAPLKVGGIYLPLHWPAQECYRYPIVLGYDSHHFVPLVTLKDSGPEIRAVPLVNRDRGRFEDLKVHFLTDPENEMKEKLLKEYLMVIEIPVQGWDHGTTHLINAAKLDEANLPKEINLVDDYFELVQHEYKKWQENSEQGRREGHAQNPMEPSVPQLSLMDVKCETPNCPFFMSVNTQPLCHECSERRQKNQNKLPKLNSKPGPEGLPGMALGASRGEAYEPLAWNPEESTGGPHSAPPTAPSPFLFSETTAMKCRSPGCPFTLNVQHNGFCERCHNARQLHASHAPDHTRHLDPGKCQACLQDVTRTFNGICSTCFKRTTAEASSSLSTSLPPSCHQRSKSDPSRLVRSPSPHSCHRAGNDAPAGCLSQAARTPGDRTGTSKCRKAGCVYFGTPENKGFCTLCFIEYRENKHFAAASGKVSPTASRFQNTIPCLGRECGTLGSTMFEGYCQKCFIEAQNQRFHEAKRTEEQLRSSQRRDVPRTTQSTSRPKCARASCKNILACRSEELCMECQHPNQRMGPGAHRGEPAPEDPPKQRCRAPACDHFGNAKCNGYCNECFQFKQMYG [TNFAIP3] | 98.1% | 95.8%
MAFB |  | 96.5%
MAFF | 74.3% | 83.3%
MAFIAKSFYDLSAISLDGEKVDFNTFRGRAVLIENVASLUGTTTRDFTQLNELQCRFPRRLVVLGFPCNQFGHQENCQNEEILNSLKYVRPGGGYQPTFTLVQKCEVNGQNEHPVFAYLKDKLPYPYDDPFSLMTDPKLIIWSPVRRSDVAWNFEKFLIGPEGEPFRRYSRTFPTINIEPDIKRLLKVAI [GPX2] | 96.7% | 94.5%
MAFMEKPPAGKVLLDDTVPLTAAIEASQSLQSHTEYIIRVQRGISVENSWQIVRRYSDFDLLNNSLQIAGLSLPLPPKKLIGNMDREFIAERQKGLQNYLNVITTNHILSNCELVKKFLDPNNYSANYTEIALQQVSMFFRSEPKWEVVEPLKDIGWRIRKKYFLMKIKNQPKERLVLSWADLGPDKYLSDKDFQCLIKLLPSCLHPYIYRVTFATANESSALLIRMFNEKGTLKDLIYKAKPKDPFLKKYCNPKKIQGLELQQIKTYGRQILEVLKFLHDKGFPYGHLHASNVMLDGDTCRLLDLENSLLGLPSFYRSYFSQFRKINTLESVDVHCFGHLLYEMTYGRPPDSVPVDSFPPAPSMAVVAVLESTLSCEACKNGMPTISRLLQMPLFSDVLLTTSEKPQFKIPTKLKEALRIAKECIEKRLIEEQKQIHQHRRLTRAQSHHGSEEERKKRKILARKKSKRSALENSEEHSAKYSNSNNSAGSGASSPLTSPSSPTPPSTSGISALPPPPPPPPPPAAPLPPASTEAPAQLSSQAVNGMSRGALLSSIQNFQKGTLRKAKTCDHSAPKIG [PXK] | 98.4% | 97.4%
MAFSGSQAPYLSPAVPFSGTIQGGLQDGLQITVNGTVLSSSGTRFAVNFQTGFSGNDIAFHFNPRFEDGGYVVCNTRQNGSWGPEERKTHMPFQKGMPFDLCFLVQSSDFKVMVNGILFVQYFHRVPFHRVDTISVNGSVQLSYISFQNPRTVPVQPAFSTVPFSQPVCFPPRPRGRRQKPPGVWPANPAPITQTVIHTVQSAPGQMFSTPAIPPMMYPHPAYPMPFITTILGGLYPSKSILLSGTVLPSAQRFHINLCSGNHIAFHLNPRFDENAVVRNTQIDNSWGSEERSLPRKMPFVRGQSFSVWILCEAHCLKVAVDGQHLFEYYHRLRNLPTINRLEVGGDIQLTHVQT [LGALS9] | 97.5% | 94.4%
